We go through 2 substances from article PMC10632561.

Sequences of proteins named here, by UniProt entry; tags and fusion partners are left off. A change or cut given only in a name is not applied to a line headed by its entry.
UniProt Q09472: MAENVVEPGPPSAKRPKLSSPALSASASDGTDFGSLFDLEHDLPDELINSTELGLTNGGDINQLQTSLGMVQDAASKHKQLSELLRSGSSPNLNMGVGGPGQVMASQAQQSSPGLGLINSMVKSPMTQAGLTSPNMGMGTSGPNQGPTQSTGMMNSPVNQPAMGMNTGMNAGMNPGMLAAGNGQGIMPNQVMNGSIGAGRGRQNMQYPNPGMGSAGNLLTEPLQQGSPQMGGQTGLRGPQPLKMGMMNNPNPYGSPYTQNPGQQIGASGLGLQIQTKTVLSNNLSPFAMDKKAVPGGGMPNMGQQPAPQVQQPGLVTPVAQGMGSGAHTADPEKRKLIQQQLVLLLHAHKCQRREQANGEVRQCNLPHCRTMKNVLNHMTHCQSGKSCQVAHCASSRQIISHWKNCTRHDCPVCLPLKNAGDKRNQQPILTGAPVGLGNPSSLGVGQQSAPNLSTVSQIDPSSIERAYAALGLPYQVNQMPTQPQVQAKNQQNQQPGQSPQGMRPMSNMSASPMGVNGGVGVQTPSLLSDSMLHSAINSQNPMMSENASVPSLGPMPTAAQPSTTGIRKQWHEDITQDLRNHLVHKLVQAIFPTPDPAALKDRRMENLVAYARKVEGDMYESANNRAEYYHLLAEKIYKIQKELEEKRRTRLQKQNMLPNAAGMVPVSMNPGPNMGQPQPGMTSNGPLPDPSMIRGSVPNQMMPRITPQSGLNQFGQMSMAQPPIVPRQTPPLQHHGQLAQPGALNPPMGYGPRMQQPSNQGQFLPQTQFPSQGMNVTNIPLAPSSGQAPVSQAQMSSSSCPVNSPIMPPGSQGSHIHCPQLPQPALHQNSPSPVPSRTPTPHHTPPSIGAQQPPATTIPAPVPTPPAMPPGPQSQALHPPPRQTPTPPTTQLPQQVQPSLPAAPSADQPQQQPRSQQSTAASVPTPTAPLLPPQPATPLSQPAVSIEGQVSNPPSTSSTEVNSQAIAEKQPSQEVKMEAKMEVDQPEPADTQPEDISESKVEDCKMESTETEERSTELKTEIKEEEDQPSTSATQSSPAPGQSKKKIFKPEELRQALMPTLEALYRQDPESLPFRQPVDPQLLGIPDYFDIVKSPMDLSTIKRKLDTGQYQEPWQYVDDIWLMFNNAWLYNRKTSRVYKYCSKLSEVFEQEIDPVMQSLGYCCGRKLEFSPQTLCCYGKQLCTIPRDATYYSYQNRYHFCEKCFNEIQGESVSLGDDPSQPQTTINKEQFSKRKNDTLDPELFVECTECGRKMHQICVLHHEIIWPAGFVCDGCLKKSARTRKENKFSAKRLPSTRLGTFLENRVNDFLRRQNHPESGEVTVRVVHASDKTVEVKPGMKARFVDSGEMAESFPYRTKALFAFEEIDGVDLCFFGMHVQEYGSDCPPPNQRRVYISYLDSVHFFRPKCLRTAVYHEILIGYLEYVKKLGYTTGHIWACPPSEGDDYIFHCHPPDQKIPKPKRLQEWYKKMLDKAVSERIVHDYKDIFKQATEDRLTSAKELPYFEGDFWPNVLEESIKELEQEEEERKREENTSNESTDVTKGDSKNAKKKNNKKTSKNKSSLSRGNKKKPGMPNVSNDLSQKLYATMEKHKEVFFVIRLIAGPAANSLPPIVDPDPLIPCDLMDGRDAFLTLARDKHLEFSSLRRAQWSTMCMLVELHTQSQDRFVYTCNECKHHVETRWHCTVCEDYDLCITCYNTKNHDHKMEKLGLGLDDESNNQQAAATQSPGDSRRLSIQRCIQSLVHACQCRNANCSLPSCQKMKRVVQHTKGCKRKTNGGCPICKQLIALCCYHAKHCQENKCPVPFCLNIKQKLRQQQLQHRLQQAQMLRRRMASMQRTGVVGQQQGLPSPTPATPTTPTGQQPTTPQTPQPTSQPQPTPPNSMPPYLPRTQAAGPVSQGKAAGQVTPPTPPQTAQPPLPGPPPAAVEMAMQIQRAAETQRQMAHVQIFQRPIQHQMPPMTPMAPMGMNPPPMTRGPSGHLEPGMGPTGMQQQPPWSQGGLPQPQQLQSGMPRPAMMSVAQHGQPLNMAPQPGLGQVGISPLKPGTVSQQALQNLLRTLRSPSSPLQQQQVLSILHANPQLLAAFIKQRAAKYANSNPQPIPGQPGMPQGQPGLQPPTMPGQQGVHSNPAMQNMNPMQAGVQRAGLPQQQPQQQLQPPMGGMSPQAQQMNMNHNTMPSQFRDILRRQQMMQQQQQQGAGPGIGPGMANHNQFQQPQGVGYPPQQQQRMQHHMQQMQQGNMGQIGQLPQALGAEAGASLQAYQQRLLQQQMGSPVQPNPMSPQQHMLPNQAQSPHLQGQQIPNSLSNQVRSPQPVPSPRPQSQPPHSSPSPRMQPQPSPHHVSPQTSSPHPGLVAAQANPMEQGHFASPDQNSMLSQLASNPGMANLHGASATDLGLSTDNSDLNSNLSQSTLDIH
UniProt Q9Y4A5: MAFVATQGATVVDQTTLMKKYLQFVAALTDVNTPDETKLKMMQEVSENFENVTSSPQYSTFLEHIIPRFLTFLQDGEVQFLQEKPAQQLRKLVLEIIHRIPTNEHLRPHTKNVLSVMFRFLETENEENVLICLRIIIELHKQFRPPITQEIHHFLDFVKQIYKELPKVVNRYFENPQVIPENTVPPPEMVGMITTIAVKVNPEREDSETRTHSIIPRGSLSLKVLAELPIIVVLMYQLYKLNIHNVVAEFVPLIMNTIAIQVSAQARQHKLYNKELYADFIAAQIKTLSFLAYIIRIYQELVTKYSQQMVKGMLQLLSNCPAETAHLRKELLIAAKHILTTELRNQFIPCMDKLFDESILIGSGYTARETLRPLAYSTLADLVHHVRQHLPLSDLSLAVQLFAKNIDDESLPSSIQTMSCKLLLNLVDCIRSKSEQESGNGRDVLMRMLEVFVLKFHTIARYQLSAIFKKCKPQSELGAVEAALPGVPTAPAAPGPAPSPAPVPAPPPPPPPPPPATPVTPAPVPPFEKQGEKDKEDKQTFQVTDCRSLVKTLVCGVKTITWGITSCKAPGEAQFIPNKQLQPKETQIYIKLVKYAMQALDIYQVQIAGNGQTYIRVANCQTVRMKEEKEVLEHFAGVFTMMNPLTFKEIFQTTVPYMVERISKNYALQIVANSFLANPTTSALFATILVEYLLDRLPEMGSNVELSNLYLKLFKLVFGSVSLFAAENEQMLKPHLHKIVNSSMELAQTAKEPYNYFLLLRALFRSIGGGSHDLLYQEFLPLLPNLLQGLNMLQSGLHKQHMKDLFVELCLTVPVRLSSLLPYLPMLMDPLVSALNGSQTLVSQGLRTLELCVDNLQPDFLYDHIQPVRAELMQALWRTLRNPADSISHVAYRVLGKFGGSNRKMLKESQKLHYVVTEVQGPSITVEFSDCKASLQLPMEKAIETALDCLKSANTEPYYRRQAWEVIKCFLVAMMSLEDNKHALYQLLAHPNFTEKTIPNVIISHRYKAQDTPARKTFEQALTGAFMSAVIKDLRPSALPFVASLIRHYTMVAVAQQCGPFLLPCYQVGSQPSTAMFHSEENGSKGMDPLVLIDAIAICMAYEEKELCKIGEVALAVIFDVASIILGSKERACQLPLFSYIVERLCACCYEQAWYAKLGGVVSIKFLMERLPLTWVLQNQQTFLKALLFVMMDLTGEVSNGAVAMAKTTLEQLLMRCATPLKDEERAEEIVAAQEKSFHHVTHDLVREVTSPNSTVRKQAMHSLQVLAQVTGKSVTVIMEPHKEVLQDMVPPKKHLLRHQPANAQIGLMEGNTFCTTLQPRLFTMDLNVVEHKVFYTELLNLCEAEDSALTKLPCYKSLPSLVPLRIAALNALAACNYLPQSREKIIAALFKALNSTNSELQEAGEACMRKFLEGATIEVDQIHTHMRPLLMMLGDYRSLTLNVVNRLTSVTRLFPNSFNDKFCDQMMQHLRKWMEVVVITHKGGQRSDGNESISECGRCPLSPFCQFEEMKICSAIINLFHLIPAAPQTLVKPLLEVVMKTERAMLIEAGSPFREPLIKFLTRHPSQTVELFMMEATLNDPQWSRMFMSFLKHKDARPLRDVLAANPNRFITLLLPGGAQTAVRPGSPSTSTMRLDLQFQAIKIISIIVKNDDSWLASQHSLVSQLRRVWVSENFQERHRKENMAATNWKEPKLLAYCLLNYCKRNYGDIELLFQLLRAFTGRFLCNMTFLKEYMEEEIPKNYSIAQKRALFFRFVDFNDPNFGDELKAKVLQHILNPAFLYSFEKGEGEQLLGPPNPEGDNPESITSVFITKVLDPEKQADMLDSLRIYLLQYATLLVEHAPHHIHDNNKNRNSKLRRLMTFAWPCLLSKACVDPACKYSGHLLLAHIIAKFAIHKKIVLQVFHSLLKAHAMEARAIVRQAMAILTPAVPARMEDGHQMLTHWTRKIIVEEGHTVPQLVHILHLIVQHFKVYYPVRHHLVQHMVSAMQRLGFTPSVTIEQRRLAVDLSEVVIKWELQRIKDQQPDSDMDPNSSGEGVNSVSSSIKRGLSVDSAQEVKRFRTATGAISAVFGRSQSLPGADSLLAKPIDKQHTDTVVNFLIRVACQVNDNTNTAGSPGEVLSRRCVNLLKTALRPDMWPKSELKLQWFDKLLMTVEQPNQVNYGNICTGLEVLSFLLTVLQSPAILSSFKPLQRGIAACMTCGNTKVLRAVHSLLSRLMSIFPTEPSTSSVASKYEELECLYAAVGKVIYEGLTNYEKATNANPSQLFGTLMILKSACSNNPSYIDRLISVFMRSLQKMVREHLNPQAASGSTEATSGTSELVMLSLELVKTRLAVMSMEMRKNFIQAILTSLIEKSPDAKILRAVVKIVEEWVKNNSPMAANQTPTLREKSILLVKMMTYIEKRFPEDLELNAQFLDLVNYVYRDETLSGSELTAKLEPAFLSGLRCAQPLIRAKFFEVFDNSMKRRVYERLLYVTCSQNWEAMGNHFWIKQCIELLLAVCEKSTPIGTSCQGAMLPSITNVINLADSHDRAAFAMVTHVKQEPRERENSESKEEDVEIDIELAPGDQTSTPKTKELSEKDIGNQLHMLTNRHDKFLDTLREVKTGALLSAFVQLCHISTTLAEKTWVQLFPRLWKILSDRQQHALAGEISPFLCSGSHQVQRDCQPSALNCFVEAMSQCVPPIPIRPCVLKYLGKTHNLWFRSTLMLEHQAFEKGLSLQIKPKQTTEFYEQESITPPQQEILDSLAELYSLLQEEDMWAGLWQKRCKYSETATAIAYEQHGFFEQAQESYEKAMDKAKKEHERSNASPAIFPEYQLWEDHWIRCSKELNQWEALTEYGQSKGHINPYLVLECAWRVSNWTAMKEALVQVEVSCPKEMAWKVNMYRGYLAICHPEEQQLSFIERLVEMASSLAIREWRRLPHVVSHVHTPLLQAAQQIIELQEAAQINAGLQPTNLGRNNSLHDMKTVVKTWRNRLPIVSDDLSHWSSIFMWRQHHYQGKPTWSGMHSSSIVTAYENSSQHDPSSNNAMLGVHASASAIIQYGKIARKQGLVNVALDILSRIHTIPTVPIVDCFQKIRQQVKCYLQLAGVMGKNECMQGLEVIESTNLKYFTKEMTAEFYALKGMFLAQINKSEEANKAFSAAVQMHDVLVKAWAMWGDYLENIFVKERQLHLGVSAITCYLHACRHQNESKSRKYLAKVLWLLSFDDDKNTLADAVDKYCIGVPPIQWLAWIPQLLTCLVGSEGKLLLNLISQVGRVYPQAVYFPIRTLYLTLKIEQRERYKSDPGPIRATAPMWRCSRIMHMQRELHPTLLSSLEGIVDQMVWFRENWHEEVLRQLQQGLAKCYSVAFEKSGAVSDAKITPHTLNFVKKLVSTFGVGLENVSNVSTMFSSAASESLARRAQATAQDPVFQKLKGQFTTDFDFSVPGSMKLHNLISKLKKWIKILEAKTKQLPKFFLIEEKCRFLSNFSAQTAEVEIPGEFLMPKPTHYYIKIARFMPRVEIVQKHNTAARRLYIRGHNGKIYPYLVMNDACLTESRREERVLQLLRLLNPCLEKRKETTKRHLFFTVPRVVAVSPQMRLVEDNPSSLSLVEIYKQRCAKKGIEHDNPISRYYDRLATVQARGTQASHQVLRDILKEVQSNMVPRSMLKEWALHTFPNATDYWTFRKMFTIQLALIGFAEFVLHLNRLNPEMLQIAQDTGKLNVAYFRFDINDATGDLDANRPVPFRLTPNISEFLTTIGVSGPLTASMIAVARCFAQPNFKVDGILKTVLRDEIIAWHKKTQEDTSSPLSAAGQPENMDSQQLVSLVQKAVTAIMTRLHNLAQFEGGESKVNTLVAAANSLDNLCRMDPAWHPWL

No constants are given. Whether binding was seen depends on the method and setting. Binding seen in cells or lysates may run through a third protein. Some results given as binding are weak or reduced against the parent protein; the word gives no strength. Tags and fused reporters may be left off the sequences shown.

This test addresses T1, Histone-lysine N-methyltransferase SMYD3 (human (endogenous in HGC-27, HT-29, HCT-116)) (UniProt Q9H7B4).
T1 sequence: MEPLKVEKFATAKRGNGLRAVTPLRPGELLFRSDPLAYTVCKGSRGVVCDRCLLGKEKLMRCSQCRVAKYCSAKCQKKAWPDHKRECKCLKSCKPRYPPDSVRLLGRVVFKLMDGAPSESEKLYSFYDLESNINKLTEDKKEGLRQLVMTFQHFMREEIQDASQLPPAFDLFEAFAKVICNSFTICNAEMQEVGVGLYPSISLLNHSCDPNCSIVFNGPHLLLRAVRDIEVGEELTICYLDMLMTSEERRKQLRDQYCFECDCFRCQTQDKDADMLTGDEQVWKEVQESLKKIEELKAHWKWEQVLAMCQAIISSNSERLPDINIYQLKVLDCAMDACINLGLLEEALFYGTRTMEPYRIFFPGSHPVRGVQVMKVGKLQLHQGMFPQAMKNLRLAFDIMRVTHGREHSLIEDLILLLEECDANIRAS
Nature of the test: co-IP; endogenous proteins in whole cell lysates of HGC-27, HT-29 and HCT-116; lysis buffer 50 mM Tris-HCl pH 7.4, 5 mM EDTA, 250 mM NaCl, 1% Triton X-100; antibody (anti-SMYD3, anti-p300 or anti-TRRAP) on Dynabeads Protein A, 3 h at room temperature; immunoblot; anti-IgG and anti-GFP as controls. A general note: In western blotting, separated proteins are transferred to a membrane and probed.

“E1A-associated Protein p300 (EP300) (from UniProt Q09472 1-2414)”: the binding result is given as “binds”.
With “TRansformation/tRanscription domain-Associated Protein (TRRAP) (from UniProt Q9Y4A5 1-3859)”, the binding entry is reported as “binds”.
